# These are yes or no findings as the source states them, for the method shown. Binding seen in cells or lysates may run through a third protein. Binding calls can cover weak binding; strength is not graded here. Where a sequence is shown, tags or fusion partners need not be part of it.
# Target: T1, SpoIVFB (B) catalytic mutant E44Q fused to GFP (B. subtilis) (UniProt P26937)
# T1 sequence: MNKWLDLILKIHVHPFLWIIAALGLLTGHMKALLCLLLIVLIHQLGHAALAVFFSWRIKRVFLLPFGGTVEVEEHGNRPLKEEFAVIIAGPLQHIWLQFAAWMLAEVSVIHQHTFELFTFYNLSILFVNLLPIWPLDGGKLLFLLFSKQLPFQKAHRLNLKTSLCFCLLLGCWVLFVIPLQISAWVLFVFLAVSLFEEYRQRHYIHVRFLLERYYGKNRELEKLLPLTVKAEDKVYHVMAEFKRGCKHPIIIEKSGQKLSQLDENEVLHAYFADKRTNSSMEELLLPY
# Experiment: co-IP; B(E44Q)-GFP immunoprecipitated with anti-GFP antibody resin from crude membranes solubilized with 0.5% digitonin, sporulating cells at hour 4 (IVB+ strain; ΔIVB and ΔsigK strains compared); 4 h at 4°C; SDS-PAGE with silver staining, MS of excised bands, anti-σ^K immunoblot
substance,measurement,value
SpoIVFA (A),binding,binds

# Reference: article PMC6242693
